Results are given in words; binding and its absence hold for the method and conditions named. In cells and extracts the contact can be indirect. Here binding means that the protein was enriched with, or labelled near, the bait; the list need not be complete.
molecular target: PROX1-BioID fusion protein (FUW-BirAv-hPROX1) (human) (UniProt Q92786); assay: proximity labelling

By UniProt entry, the sequences of proteins in these tests, tags left out.
UniProt Q92786: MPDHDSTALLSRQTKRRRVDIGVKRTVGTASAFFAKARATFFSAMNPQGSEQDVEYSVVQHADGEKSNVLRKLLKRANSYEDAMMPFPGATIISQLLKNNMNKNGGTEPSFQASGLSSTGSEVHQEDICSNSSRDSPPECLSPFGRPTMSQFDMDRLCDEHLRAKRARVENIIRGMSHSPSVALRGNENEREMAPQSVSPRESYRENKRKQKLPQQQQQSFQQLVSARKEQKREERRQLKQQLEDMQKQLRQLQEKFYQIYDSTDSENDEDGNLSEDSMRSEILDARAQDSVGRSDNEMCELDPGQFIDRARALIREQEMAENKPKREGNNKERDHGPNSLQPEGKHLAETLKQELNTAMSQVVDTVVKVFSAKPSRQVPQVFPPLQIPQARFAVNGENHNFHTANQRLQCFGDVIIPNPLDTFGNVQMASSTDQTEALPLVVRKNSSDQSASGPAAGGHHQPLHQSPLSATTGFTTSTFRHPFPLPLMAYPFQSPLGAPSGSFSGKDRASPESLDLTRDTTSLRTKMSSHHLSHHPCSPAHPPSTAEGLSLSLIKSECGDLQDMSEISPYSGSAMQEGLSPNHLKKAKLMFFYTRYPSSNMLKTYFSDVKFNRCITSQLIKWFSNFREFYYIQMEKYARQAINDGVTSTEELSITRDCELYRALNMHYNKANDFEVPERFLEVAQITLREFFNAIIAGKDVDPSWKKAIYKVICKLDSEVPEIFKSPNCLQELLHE
UniProt Q13547: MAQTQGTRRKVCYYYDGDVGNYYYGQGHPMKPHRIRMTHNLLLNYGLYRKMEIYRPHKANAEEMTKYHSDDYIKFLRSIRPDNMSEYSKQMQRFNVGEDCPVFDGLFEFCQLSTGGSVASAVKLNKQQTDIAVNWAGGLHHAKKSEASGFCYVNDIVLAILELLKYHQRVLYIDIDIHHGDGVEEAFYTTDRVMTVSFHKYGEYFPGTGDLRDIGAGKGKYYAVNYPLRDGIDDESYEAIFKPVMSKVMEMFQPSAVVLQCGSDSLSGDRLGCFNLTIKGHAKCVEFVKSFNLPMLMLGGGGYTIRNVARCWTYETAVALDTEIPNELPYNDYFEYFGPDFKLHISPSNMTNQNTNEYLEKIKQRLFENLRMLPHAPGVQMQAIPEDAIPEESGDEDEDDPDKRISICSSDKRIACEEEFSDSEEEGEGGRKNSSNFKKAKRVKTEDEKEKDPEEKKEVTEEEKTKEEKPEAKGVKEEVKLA
UniProt Q92769: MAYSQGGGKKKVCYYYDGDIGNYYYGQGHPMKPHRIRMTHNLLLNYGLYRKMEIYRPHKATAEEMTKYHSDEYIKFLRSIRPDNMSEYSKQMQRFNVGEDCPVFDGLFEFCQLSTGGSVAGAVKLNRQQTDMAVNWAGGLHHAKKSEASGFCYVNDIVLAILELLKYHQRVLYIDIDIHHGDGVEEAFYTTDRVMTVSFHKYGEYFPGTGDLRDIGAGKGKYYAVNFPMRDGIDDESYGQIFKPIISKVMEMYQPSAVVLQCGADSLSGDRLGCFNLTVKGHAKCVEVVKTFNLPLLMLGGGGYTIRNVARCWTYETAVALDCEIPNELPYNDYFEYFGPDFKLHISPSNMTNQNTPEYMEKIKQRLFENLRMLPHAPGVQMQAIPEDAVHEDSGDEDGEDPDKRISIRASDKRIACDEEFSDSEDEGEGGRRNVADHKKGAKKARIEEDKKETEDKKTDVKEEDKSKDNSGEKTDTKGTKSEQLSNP
UniProt O15379: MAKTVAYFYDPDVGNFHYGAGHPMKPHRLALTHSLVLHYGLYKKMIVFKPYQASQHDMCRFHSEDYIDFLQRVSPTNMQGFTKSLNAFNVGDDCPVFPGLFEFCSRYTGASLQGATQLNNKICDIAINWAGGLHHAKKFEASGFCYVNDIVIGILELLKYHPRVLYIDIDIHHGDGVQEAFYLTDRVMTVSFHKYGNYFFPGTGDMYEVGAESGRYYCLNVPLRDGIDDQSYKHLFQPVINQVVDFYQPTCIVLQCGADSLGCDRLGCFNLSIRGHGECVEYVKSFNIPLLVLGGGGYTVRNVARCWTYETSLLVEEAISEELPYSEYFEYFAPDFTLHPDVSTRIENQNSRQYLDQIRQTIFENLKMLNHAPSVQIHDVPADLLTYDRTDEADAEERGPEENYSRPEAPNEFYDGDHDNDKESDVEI
UniProt O75376: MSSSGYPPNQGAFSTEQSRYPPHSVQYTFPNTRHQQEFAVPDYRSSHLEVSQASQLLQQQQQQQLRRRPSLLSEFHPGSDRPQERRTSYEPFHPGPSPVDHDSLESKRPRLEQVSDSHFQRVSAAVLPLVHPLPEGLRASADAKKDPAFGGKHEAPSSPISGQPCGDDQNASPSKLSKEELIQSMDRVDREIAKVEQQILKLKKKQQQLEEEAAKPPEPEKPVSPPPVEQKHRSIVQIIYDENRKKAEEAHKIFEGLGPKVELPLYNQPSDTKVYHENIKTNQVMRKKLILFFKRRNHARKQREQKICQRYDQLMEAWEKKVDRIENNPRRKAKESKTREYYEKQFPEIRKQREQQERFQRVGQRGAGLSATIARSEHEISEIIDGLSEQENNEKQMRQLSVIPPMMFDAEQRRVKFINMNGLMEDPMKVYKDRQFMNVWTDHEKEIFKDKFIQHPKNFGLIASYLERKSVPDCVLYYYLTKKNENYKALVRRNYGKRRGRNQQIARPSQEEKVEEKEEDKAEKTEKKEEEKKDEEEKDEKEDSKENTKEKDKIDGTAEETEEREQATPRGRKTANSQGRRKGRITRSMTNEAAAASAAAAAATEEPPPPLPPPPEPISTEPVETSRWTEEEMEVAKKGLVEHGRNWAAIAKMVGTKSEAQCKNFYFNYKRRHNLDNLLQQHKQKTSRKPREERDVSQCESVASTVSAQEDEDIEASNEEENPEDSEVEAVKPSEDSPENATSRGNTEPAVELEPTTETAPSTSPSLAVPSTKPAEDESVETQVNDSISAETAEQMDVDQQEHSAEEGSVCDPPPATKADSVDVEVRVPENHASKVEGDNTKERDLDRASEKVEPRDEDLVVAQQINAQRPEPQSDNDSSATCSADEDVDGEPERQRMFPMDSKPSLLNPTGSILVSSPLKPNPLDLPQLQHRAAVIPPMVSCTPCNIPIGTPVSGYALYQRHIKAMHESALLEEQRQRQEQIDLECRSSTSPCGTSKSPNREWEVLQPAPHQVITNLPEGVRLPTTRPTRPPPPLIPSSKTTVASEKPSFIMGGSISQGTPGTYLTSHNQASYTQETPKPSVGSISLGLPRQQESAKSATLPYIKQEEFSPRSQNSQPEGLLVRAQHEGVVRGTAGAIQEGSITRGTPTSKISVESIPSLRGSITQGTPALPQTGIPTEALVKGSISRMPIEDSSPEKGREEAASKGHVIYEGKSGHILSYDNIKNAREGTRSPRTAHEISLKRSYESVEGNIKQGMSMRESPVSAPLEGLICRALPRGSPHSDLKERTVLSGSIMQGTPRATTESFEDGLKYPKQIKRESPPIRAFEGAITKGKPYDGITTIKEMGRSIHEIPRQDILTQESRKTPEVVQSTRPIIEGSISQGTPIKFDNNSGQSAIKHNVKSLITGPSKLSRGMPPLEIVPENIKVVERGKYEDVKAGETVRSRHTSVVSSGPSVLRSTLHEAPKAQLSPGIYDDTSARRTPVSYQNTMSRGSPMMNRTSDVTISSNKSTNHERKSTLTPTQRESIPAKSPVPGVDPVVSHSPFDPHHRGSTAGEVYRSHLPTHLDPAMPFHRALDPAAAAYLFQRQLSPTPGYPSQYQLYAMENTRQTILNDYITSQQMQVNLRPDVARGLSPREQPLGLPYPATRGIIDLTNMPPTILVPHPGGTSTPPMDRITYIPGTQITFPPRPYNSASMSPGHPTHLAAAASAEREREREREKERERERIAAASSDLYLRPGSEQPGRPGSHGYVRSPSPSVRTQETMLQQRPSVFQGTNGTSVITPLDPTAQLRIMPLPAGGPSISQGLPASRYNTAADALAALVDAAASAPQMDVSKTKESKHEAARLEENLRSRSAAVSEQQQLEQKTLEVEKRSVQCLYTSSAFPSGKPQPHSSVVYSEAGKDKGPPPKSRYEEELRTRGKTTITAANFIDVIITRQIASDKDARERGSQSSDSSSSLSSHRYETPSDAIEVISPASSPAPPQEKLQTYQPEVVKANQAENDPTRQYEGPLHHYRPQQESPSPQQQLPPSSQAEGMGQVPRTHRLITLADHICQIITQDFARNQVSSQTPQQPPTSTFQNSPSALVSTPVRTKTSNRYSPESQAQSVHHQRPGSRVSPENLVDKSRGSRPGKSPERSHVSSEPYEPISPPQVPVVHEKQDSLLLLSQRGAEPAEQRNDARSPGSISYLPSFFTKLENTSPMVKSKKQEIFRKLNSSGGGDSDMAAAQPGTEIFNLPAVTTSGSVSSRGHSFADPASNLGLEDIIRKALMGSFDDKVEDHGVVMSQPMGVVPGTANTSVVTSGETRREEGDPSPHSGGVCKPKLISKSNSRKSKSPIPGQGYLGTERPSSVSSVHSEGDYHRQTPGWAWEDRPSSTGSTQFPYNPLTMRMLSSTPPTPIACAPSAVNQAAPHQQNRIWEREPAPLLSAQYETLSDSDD

binding, binds:
HDAC1 (from UniProt Q13547 1-482) (enzyme), HDAC2 (from UniProt Q92769 1-488) (enzyme), HDAC3 (from UniProt O15379 1-428) (enzyme), NCoR1 (from UniProt O75376 1-2440)
